From paper PMC9934407, “Comprehensive structural characterization of the human AAA+ disaggregase CLPB in the apo- and substrate-bound states reveals a unique mode of action driven by oligomerization” (PLOS Biology, 2023) come the findings set out here.

The target of this assay is T1, human CLPB (isoform 2), construct CLPB-N127, wild type (human) (UniProt Q9H078).
T1 sequence: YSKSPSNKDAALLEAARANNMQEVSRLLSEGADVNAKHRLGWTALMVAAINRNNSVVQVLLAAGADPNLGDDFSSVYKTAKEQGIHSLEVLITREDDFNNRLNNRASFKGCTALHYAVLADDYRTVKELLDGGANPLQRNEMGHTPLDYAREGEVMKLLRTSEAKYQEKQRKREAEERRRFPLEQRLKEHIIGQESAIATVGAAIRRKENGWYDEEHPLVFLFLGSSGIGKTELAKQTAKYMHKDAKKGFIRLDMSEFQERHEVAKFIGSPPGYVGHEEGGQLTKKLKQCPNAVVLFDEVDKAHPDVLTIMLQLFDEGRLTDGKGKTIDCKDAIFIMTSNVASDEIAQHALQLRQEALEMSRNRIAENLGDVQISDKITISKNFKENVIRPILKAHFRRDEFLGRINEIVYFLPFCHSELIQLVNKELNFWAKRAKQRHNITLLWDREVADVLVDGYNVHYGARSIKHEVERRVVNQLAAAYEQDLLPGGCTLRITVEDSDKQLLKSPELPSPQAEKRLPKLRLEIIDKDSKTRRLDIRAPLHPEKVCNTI
Put plainly: cryo-EM 2D classification; CLPB-casein-ATPγS dataset: 20 μL casein (4.0 mg/mL) added to 40 μL CLPB (2.0 mg/mL) before vitrification, excess ATPγS; both purified.

Results are given in words; binding and its absence hold for the method and conditions named. A result given as binding can be weak or reduced; the word gives no strength.

On to casein (model substrate), for which the binding entry was “binds”.
